Measurements: patent US20080262228A1, “Metabolites of 5-fluoro-8- quinoline and methods of preparation and uses thereof” (Wyeth, priority 2006, published 2008)
Counter-ions that a name gives are not always drawn. Some entries share one result that the patent states for a list of compounds.

Assay: In vivo metabolism and excretion of [14C]COMPOUND I in male beagle dogs, single oral 3 mg/kg dose
Design: species or system dog
Conditions: pooled plasma, 3 mg/kg oral
Procedure: Dose preparation, animal dosing, and specimen collection were performed at Wyeth Research, Collegeville, Pa. The vehicle contained 2% (w/v) polysorbate 80, NF and 0.5% (w/v) methylcellulose (4000 cps) in water. [^14C]COMPOUND I trisuccinate salt (50.25 mg) and non-labeled COMPOUND I trisuccinate salt (331.9 mg) were suspended in 72 mL of the vehicle by grinding with a mortar and a pestle. The target [^14C]COMPOUND I concentration was approximately 3 mg/mL as free base and 48 μCi/mL with a target specific activity of 16 μCi/mg. Three pre- and post-dose aliquots (100 μL) were taken for the determination of radiochemical purity, drug and radioactivity concentrations and specific activity (see below).
Four male beagle dogs, weighing from 9.4 to 11.5 kg at the time of dosing, were from an in-house colony. […]
Triplicate aliquots of diluted dose (20 μL), dose fractions (10 μL) and plasma (50 μL), urine (200 μL) and cage wash (500 μL) from individual dogs were analyzed for radioactivity content. […]
Fecal samples from individual dogs were weighed and homogenized in water at a volume-to-weight ratio of about 4:1 with a Silverson sealed-unit homogenizer at ambient temperature. […] The liberated ^14CO2 was trapped with Carbo-Sorb® E carbon dioxide absorber, mixed with PermaFluor® E+liquid scintillation cocktail, and counted in a Tri-Carb Model 3100 TR/LL liquid scintillation counter. […]

SMILES | percent of total plasma radioactivity, M21 and M24 together
Oc1cc(N2CCN(C3CCN(c4ccc(F)c5cccnc45)CC3)CC2)c2ncccc2c1 [Metabolite M21, 8-{4-[1-(5-fluoroquinolin-8-yl)piperidin-4-yl]piperazin-1-yl}quinolin-6-ol trihydrochloride] | up to 11%
O=S(=O)(O)Oc1cc(N2CCN(C3CCN(c4ccc(F)c5cccnc45)CC3)CC2)c2ncccc2c1 [Metabolite M24, O-Desmethyl COMPOUND I sulfate] | up to 11%
